Data taken from patent US11576911B2, “Composition and method for treatment of depression and psychosis in humans” (Glytech LLC, priority 2012, dated 2023).
At least one structure is not confirmed: it was looked up by name or label, or the drawing left a doubt.

System: Male C57Bl/6J mice
Test: Elevated plus maze (EPM), DOI 2 mg/kg in all conditions
Type: in vivo
Settings: Table 6 doses; DOI 2 mg/kg added in all conditions

With `CN(C)CCO/N=C(/C=C/c1ccc(O)cc1)c1ccccc1F` [SR46349B] the “Distance travelled in the open arm relative to the vehicle, in words” value was “significantly reduced”.
